Assay results published in patent publication US8324177B2, “Triterpene compositions and methods for use thereof” (Research Development Foundation, priority 1998, dated 2012).
Marks after values point to notes of the source that are not given here.

Experiments:
[1] = test system: Acacia victoriae shoot tips; assay: Multiple shoot induction in shoot tip cultures
[2] = test system: Acacia victoriae hairy roots; assay: Growth of hairy root cultures in liquid medium

| Compound | Multiple shoots, average ([1]; 1.3 mg/L) [shoots/culture] | Shoot Length ([1]; MS, BA 1.3 mg/L, IAA 0 mg/L) [cm] | Average No. of shoots per shoot tip ([1]; MS, BA 1.3 mg/L, IAA 0 mg/L, 18 replicates + SE) | Growth of hairy roots, fold increase ([2]; carbon source 2% (w/v) in MS medium) [fold] | Fresh weight after 4 weeks ([2]; carbon source 2% W/V in MS medium, initial F.W. 300 mg) |
| --- | --- | --- | --- | --- | --- |
| c1ccc(CNc2ncnc3[nH]cnc23)cc1 [BA] | 3.94 | 8.6 ± 3.0258 | 3.94 + 1.846 | – | – |
| OC[C@H]1O[C@@](CO)(O[C@H]2O[C@H](CO)[C@@H](O)[C@H](O)[C@H]2O)[C@@H](O)[C@@H]1O [sucrose] | – | – | – | 24.52 | 7.356 ± 0.543^c gm |
